Assay results from PMC4498735, “Fibulin-1C, C1 Esterase Inhibitor and Glucose Regulated Protein 75 Interact with the CREC Proteins, Calumenin and Reticulocalbin” (PLoS ONE, 2015).
These are yes or no findings as the source states them, for the method shown. Some entries that bind do so weakly or less than the wild type. Tags and fused reporters may be left off the sequences shown.

Columns and labels:
GST-calumenin [1] = target: T1, GST-calumenin (UniProt O43852); experiment: condition: only 0.1 mM Ca2+ in the dissociation phase; SPR; GST-calumenin immobilised; association phase with 4 mM free Ca2+; Ca2+ in the dissociation phase 0.1 mM; both purified
T1 sequence: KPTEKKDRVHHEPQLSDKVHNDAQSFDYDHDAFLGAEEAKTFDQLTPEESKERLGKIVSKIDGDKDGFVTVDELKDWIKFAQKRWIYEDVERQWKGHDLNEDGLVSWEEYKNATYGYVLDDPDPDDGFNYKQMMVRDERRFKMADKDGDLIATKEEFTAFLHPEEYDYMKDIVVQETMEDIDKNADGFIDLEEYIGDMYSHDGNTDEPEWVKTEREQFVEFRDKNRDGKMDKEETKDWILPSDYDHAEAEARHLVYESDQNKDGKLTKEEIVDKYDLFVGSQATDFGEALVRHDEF

GST-calumenin [2] = target: T1, GST-calumenin; experiment: SPR; GST-calumenin immobilised; association phase with 4 mM free Ca2+; Ca2+ in the dissociation phase 3.5 mM to 0.5 mM; both purified

binding (GST-calumenin [1]): no binding
binding (GST-calumenin [2]): binds
B1: C1 esterase inhibitor (commercial, Calbiochem) (protein, UniProt P05155 23-500)
chain: NPNATSSSSQDPESLQDRGEGKVATTVISKMLFVEPILEVSSLPTTNSTTNSATKITANTTDEPTTQPTTEPTTQPTIQPTQPTTQLPTDSPTQPTTGSFCPGPVTLCSDLESHSTEAVLGDALVDFSLKLYHAFSAMKKVETNMAFSPFSIASLLTQVLLGAGENTKTNLESILSYPKDFTCVHQALKGFTTKGVTSVSQIFHSPDLAIRDTFVNASRTLYSSSPRVLSNNSDANLELINTWVAKNTNNKISRLLDSLPSDTRLVLLNAIYLSAKWKTTFDPKKTRMEPFHFKNSVIKVPMMNSKKYPVAHFIDQTLKAKVGQLQLSHNLSLVILVPQNLKHRLEDMEQALSPSVFKAIMEKLEMSKFQPTLLTLPRIKVTTSQDMLSIMEKLEFFDFSYDLNLCGLTEDPDLQVSAMQHQTVLELTETGVEAAAASAISVARTLLVFEVQQPFLFVLWDQQHKFPVFMGRVYDPRA
